PMC5354769
Results are given in words; binding and its absence hold for the method and conditions named. In cells and extracts the contact can be indirect. Some binding calls cover weakened binding; strength is not graded here.

Target: T1, Neogenin-1 (human (endogenous in SK-N-SH)) (UniProt Q92859)
T1 sequence: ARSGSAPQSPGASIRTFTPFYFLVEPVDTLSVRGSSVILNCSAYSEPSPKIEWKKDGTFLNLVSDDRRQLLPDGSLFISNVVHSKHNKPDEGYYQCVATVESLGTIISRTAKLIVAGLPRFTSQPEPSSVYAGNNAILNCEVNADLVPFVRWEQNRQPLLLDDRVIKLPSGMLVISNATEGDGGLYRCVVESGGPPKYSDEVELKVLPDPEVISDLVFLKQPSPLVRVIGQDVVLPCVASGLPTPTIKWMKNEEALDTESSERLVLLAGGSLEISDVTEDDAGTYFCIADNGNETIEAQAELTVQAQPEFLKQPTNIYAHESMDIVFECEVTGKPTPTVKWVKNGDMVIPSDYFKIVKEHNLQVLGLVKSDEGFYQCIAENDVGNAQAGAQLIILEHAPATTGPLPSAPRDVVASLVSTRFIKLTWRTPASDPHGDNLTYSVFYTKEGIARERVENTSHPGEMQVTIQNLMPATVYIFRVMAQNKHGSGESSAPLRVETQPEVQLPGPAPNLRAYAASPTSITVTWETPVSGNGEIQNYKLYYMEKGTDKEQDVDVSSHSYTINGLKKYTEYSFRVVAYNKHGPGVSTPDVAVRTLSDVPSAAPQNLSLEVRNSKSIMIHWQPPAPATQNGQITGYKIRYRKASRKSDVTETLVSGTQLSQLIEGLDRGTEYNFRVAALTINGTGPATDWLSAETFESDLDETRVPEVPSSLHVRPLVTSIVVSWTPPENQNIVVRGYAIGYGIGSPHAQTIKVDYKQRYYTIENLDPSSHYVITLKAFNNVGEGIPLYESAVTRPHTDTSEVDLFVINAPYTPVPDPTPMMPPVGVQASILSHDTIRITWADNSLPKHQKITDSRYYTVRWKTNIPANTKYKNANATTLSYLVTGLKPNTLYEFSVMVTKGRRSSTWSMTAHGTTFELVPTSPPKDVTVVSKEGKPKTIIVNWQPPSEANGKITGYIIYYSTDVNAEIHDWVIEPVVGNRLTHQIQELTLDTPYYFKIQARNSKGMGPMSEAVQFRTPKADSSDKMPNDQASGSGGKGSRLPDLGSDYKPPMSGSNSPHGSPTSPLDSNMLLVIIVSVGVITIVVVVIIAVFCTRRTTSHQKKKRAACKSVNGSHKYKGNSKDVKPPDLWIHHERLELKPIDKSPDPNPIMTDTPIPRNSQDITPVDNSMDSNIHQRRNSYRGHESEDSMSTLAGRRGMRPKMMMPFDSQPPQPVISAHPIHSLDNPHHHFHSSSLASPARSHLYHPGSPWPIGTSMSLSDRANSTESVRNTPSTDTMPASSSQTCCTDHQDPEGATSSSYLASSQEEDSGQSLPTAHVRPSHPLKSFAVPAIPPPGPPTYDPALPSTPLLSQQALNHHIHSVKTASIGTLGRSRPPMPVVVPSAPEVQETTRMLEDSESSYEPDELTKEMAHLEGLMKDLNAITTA
Test: co-IP; SK-N-SH cells incubated 1 h with human recombinant Netrin-4 (200 ng/ml); lysis in 20 mM Tris pH 7.4, 150 mM NaCl, 1% NP-40; 1000 ug total protein precipitated 1 h with protein A/G bead-immobilised antibodies against NEO1 or NTN4; Western blot against NEO1 and NTN4; only the binder purified

B1: Netrin-4 (ligand, UniProt Q9HB63 19-628)
chain: GLSGVAGVSSRCEKACNPRMGNLALGRKLWADTTCGQNATELYCFYSENTDLTCRQPKCDKCNAAYPHLAHLPSAMADSSFRFPRTWWQSAEDVHREKIQLDLEAEFYFTHLIVMFKSPRPAAMVLDRSQDFGKTWKPYKYFATNCSATFGLEDDVVKKGAICTSKYSSPFPCTGGEVIFKALSPPYDTENPYSAKVQEQLKITNLRVQLLKRQSCPCQRNDLNEEPQHFTHYAIYDFIVKGSCFCNGHADQCIPVHGFRPVKAPGTFHMVHGKCMCKHNTAGSHCQHCAPLYNDRPWEAADGKTGAPNECRTCKCNGHADTCHFDVNVWEASGNRSGGVCDDCQHNTEGQYCQRCKPGFYRDLRRPFSAPDACKPCSCHPVGSAVLPANSVTFCDPSNGDCPCKPGVAGRRCDRCMVGYWGFGDYGCRPCDCAGSCDPITGDCISSHTDIDWYHEVPDFRPVHNKSEPAWEWEDAQGFSALLHSGKCECKEQTLGNAKAFCGMKYSYVLKIKILSAHDKGTHVEVNVKIKKVLKSTKLKIFRGKRTLYPESWTDRGCTCPILNPGLEYLVAGHEDIRTGKLIVNMKSFVQHWKPSLGRKVMDILKRECK
  binding: binds
